Assay [1] has as its target Myc-tagged Parkin (pLPCX-Myc-Parkin), wild type (human) (UniProt O60260). Description: co-IP; MCF7 cells expressing Myc-Parkin and HA-HIF-1α (WT or mutants); anti-Myc (9E10) or anti-HA agarose beads (20 µl), western blot.
In assay [2] the target is HA-tagged HIF-1α (pLHCX-HA-HIF-1α), wild type (human) (UniProt Q16665). The assay is described as above.
Assay [3] addresses endogenous Parkin (human (endogenous in MCF7, T47D, MCF10A)) (UniProt O60260). The assay can be described thus: co-IP; endogenous proteins in MCF7, T47D and MCF10A cells; anti-Parkin antibody (5 µg) and anti-HIF-1α antibody (5 µg), mouse IgG as negative control; Parkin shRNA knock-down in MCF7 as negative control.

By UniProt entry, the sequences of proteins in these tests, tags left out.
UniProt Q16665: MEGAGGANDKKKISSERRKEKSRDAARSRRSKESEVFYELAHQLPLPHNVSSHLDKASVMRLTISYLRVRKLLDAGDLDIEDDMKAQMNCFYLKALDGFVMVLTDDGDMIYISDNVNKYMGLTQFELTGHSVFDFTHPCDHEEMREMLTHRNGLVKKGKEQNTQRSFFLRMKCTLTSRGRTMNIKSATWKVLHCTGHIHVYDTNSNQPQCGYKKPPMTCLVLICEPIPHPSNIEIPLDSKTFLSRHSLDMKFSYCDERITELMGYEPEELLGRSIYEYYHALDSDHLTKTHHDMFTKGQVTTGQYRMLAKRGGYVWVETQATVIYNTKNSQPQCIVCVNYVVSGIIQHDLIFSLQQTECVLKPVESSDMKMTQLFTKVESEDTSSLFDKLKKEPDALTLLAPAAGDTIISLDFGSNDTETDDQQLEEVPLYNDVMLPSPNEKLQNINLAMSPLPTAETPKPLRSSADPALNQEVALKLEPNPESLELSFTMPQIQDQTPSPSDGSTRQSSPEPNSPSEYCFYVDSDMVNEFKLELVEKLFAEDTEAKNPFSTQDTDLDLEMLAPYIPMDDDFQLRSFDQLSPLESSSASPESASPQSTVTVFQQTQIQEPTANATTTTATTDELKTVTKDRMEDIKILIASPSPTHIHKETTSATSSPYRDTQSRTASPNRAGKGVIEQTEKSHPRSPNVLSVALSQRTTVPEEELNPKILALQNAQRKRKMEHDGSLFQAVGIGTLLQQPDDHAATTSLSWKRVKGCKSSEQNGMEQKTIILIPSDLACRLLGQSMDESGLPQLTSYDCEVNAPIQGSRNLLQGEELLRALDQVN

This is an account of results in paper PMC5703960.

Results are given in words; binding and its absence hold for the method and conditions named. In cells and extracts the contact can be indirect. Some results given as binding are weak or reduced against the parent protein; the word gives no strength.

Take “HA-tagged HIF-1α (pLHCX-HA-HIF-1α), wild type (from UniProt Q16665 1-826)”: the binding entry in assay [1] is “binds”.
“Myc-tagged Parkin (pLPCX-Myc-Parkin), wild type (from UniProt O60260 1-465) (enzyme)”: in assay [2], the binding entry was “binds”.
Regarding “endogenous HIF-1α (from UniProt Q16665 1-826)”, the binding entry in assay [3] is given as “binds”.
